The results in this text go back to paper PMC3203111.

Protein sequences, listed by entry. Tags and fused reporters are not part of them. Lines headed by an entry give the natural chain unless they say otherwise; changes in a name come on top. Residues count along the entry.
UniProt O00206, residues 24-839: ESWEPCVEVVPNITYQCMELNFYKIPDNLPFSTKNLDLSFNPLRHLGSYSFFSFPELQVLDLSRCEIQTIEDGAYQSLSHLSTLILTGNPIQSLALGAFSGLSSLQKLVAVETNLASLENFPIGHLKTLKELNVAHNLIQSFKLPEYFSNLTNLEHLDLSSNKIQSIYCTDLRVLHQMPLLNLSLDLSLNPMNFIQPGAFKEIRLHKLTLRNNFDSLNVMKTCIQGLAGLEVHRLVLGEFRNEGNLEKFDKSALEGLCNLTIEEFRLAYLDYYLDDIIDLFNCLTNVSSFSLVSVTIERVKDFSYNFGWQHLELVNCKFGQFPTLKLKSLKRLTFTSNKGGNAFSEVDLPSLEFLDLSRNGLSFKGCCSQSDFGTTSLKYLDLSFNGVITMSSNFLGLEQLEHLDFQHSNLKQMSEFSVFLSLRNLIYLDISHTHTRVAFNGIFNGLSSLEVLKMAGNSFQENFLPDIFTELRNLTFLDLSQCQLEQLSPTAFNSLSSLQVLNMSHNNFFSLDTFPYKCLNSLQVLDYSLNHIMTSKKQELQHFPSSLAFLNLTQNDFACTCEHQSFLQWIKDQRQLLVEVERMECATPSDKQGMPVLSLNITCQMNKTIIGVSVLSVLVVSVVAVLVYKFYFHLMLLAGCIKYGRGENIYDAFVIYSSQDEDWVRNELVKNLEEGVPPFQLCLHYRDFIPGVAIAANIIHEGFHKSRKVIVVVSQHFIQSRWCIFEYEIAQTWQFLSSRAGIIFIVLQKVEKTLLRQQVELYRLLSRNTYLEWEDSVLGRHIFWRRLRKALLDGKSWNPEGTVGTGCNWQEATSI
UniProt P0A0U8: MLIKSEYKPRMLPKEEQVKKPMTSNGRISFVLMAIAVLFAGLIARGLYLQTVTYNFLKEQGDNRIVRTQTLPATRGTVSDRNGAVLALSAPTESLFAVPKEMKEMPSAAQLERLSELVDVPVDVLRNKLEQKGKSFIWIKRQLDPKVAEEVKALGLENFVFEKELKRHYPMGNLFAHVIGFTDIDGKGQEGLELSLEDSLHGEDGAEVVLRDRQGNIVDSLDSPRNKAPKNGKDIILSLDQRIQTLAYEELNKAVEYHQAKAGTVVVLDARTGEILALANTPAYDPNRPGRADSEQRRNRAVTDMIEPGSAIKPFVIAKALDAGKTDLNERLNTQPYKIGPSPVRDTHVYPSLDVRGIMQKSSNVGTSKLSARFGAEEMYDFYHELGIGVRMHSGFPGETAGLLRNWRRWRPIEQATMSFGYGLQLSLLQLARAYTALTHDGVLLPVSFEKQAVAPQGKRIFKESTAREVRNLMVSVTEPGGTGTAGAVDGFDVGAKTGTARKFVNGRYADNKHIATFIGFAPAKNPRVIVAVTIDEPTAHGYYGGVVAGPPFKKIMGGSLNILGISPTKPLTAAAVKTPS

Test [1] addresses human TLR4 (Toll-like receptor 4), naturally expressed by Hec-1-B epithelial cells (human) (UniProt O00206). The experiment in a line: co-IP; Hec-1-B cells treated with 10 µg of purified His6-tagged protein, lysed (1% Triton X-100, 0.5% NP-40, 100 mM NaCl, pH 7.5); 500 µg soluble proteins precipitated with 5 µg anti-hTLR4 mAb (clone 1G11) and protein A-agarose at 4°C; immunoblot with anti-His tag polyclonal antibody; only the binder purified. For orientation: A western blot detects proteins with antibodies after separation by electrophoresis.

The target is the same in test [2]. Nature of the test: ELISA; cellular ELISA: Hec-1-B cells in 24 well plates treated 1 h at 37°C with increasing amounts of purified His-tagged PBP2, with anti-TLR4 blocking antibody (clone HTA125) or irrelevant normal mouse IgG (10 µg); washed, fixed; bound PBP2 detected with anti-His-tag polyclonal antibody and HRPO conjugate, read at 492 nm; only the binder purified.

The target of test [3] is His6-tagged PBP2 (penicillin-binding protein 2) from Neisseria meningitidis (Neisseria meningitidis) (UniProt P0A0U8). The experiment in a line: co-IP; Hec-1-B cells treated with 10 µg of purified His6-tagged protein, lysed (1% Triton X-100, 0.5% NP-40, 100 mM NaCl, pH 7.5); 500 µg soluble proteins precipitated with 5 µg anti-HisTag rabbit polyclonal antibody and protein A-agarose at 4°C; immunoblot with anti-TLR4 mAb; only the target purified.

These are yes or no findings as the source states them, for the method shown. A result given as binding can be weak or reduced; the word gives no strength. For part of these data: Binding seen in cells or lysates may run through a third protein.

As for “His6-tagged PBP2 (penicillin-binding protein 2) from Neisseria meningitidis (from UniProt P0A0U8)”, the binding result in test [1] and in test [2] was “binds” in each case. In the case of “human TLR4 (Toll-like receptor 4), naturally expressed by Hec-1-B epithelial cells (from UniProt O00206 24-839)”, in test [3], the binding entry is “binds”.
